Experiment in all cases: affinity purification with mass spectrometry; anti-FLAG immunoprecipitation from extracts of S. pombe strains expressing Mis17-, Mis6- or Mis12-FLAG under the native promoter; extraction buffer 25 mM HEPES-KOH pH 7.5, 200 mM NaCl, 10% glycerol, 0.1% NP-40, 1 mM PMSF; 4-12% SDS-PAGE, gel slices, in-gel trypsin digestion, LC/MS/MS
The target in test [1] is T1, Mis12-FLAG (S. pombe) (UniProt Q9Y738).
T1 sequence: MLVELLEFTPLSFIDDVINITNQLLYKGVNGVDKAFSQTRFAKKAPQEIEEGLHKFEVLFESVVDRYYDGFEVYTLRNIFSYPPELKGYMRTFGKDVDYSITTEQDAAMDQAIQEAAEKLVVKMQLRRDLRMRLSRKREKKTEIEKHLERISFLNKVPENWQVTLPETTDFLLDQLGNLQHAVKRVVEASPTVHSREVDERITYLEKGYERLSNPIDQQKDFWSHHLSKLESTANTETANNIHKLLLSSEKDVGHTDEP

The target of test [2] is T2, Mis17-FLAG (S. pombe) (UniProt O94643).
T2 sequence: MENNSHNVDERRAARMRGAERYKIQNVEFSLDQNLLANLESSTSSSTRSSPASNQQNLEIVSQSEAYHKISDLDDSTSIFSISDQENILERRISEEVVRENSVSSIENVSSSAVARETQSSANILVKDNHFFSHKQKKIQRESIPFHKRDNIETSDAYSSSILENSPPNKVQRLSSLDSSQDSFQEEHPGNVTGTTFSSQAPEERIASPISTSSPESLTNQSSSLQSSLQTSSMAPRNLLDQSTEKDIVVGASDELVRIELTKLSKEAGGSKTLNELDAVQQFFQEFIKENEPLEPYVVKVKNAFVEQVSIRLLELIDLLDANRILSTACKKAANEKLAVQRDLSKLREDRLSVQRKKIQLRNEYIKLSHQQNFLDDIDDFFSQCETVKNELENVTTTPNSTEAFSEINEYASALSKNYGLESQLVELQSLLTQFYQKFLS

The target of test [3] is T3, Mis6-FLAG (S. pombe) (UniProt P87227).
T3 sequence: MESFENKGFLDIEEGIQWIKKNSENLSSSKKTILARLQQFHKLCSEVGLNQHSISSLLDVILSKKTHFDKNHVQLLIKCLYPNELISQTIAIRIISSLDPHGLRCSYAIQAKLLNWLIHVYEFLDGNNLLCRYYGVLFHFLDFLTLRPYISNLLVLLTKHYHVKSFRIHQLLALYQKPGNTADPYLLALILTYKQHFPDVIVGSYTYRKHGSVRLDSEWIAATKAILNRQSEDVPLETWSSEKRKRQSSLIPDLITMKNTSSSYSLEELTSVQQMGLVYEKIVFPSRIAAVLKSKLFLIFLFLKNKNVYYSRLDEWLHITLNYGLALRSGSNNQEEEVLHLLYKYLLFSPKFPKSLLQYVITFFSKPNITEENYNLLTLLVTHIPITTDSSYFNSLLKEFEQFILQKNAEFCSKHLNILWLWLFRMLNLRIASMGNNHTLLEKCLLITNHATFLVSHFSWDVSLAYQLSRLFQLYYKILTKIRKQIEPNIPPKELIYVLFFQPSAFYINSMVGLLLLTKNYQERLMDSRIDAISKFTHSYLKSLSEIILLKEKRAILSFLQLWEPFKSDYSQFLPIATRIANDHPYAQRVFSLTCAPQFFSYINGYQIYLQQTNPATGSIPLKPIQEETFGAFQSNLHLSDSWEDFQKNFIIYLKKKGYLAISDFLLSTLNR

The record followed here is PMC3061866.

These are yes or no findings as the source states them, for the method shown. Binding seen in cells or lysates may run through a third protein. These calls come from enrichment with a bait or labelling near it, and not all partners need be listed. No binding means not detected with the bait. Sequences can lack the tags named with a protein.

As to Sam50 (S. pombe), the binding entry in test [1] is listed as “no binding”; in test [2] it was “binds”; in test [3] it was “binds”.
Fta5 (S. pombe): the binding entry in test [2] and in test [3] was “no binding” in each case.
